Experimental data reported in patent publication US11026942B2, “Agent for preventing and/or treating Alzheimer's disease” (KYOTO UNIVERSITY, priority 2015, dated 2021).

System: Aβ42/40 ratio
Assay: Aβ42/40 ratio in FAD1 iPS cell-derived nerve cells (primary/secondary screening, dose dependency)
Type: cell-based, human
Settings: secondary screening
Text: To perform induction from iPS cells to the cerebral cortex nerve early and with high reproducibility, iPS cells introduced with human Neurogenin 2 gene (NGN2) linked to doxycycline-inducible promoter by using PiggyBac were used (FIG. 1a, FIG. 1b, FIG. 4a and FIG. 4b). IPS cells prepared from 4 patients with familial Alzheimer's disease (FAD), 2 patients with sporadic Alzheimer's disease (SAD) and 4 healthy individuals (HC) were used. The iPS cells were established by the method described in Okita K et al., Nature.
Structural formulas (those in the form of salt or halide are also described as free form) and the general names of the candidate compounds are shown in Table 1.
To further study reproducibility of the candidate drugs obtained by the primary screening, secondary screening was conducted. In addition to Aβ40, Aβ42, Aβ42/40 ratio, Aβ38, Aβ43, sAPPα, sAPPβ were also studied and each numerical value was obtained.

CCN(CC)CCOC(=O)C1(C2CCCCC2)CCCCC1 [compound 104, DICYCLOMINE]
Ratio Aβ42/40: 0.99
